# Assay results from publication PMC11277477.
# No constants are given. Whether binding was seen depends on the method and setting. In cells and extracts the contact can be indirect. These calls come from enrichment with a bait or labelling near it, and not all partners need be listed. For part of these data: Sequences can lack the tags named with a protein.
# T1: GST-Adh recombinant protein (E. histolytica)
# T1 sequence: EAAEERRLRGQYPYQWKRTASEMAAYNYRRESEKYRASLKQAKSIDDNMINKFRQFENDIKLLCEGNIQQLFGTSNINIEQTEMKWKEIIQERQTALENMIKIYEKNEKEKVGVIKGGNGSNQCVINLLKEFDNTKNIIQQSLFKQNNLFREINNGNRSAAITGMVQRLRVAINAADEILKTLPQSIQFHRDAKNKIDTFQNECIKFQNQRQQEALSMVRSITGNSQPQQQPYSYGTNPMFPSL
# T2: GST-Linker recombinant protein (E. histolytica)
# T2 sequence: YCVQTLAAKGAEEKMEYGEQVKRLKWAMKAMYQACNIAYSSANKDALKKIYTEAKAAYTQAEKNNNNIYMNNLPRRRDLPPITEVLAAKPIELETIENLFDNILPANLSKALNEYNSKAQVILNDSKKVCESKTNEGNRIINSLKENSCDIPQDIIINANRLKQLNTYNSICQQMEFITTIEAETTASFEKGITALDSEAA
# B1: EhPeroxiredoxin (EhPrx) (enzyme, UniProt C4MAR7 1-229)
# chain: MSCNQQKECCKKECQEKECCCPRIKAFKKFINTFEKAQIGKEAPEFKAPAYCPCGSIKEIDINEYRGKYVVLLFYPLDWTFVCPTEMIGYSELAGQLKEINCEVIGVSVDSVYCHQAWCEADKSKGGVGKLTFPLVSDIKRCISIKYGMLNVEAGIARRGYVIIDDKGKVRYIQMNDDGIGRSTEETIRIVKAIQFSDEHGAVCPLNWKPGKDTIEPTPDGIKKYLTAH
# B2: EhNPC1 (protein, UniProt C4M8X7 1-1339)
# chain: MFVFFFLISVVISITPLPGGERDINNLDQYNNKCRMHNVPGCTAPAINMKSDGTLYLTDAYPAPKNMIEICISEHPEFDPNVTLGHKTCCDEHSVLDLKEQSTLLDGSFGKCPACYLNQMNLWCGFACDPNSARWTEIDDFKHDNTCNEPDGIDVPSLYYYLHPLYAQQIYDSCKDTELSGGFAVRSLYPTYKEFFQMISDVNPVMPLHFVYDETGYNGSKYTEMHKCSDMCSCQSCHEMCTEFIEDEPTFKDYPFLDGTLNIITIISIHLFMLFIMVTITVCGGILSYKTFTQMKKSNPTLLYISYISLGAVTLLGIGFIIMGIIVVGFPMEGVITSMPWGDGNLLGMILLYIGFGVYVIGYSVYDLYYFVIYTLYNKKESEDIIDSAKVSILGQEESCEEDPNKVDLTDNFLSKAMSWYTKFLWKFKWIILTVVILCCIVLCVGVFKIVFITDSLGLWVPKNCQTMKDKNYYDEAFGPFFRINQFMLSDKLHPGNQVLTQPLIVQLQQMIDEIRAIHVEWTDKETGITKDITMDDMCYKPVFGKGCIITSVTGYWQHDINKIMNTENVTQYIQNCLGNPLATGCADDIGSPVDPHNSLGNYTVGDNNDPMKATILQATFMFNQPNKTAIEWAELWEEKYLEILDRDYSLVKVAYQAQRSVDDEINRETFTDVLTVLCSYMVMFIYISLSLGNSFYHFNYKTVFVKSRILLGILGIVIVLFSVFTSAGFFSWINVEATLIITEVIPFLVLAIGVDNIFILTNTIDEQPMYDKDGQYVPVEKRLEHSLMHVGPSMMLASISESLAFFLGYLTSMPAVQSFSLYAGLAIFIDFILQITVYAVLLCYDVKRQESHGLDFIPWLQVHDNSLDEQHDFERGSLIKHLFKYVATFLSYYPVKIIGLFFFIAFFIFSLNYVPKTMLGLPQETALPQDSYIQDYFVALTYLEIGPPVYIVVRDGATYLNETTQSALCASDNFGCDALSIPNYYDAARTIDGTTFDWIDDYFSWAAQKDCCRLDKDGNICPYDMPNYTECTPCFTNFTDKKRPVPEDFYKYINRFLTASINETLCSVNGQAYYPDVVWNHINGTKETDYSYVNVSRLRLYHTVLVTQDDFIDAMVQAYNISDYMNSIFDVKTFPYAYHYVYFQQYFNIVDLCVMDVCLALAAVFIVVMLLMFDPIVAIMIVLCVLMCVIDLIGIMYLWGVELNAVSCVNLVMSIGITIEFCVHIAHAFLSSPKKTLNDKMKDAVMNMGNNVFVGITLTKFLGVIVLSLSSGLIFVIYYFRMYFMMLIFGASHGLFFLPILLSLIPSVSLSHITDPFKKMFGRCNKKKSTKGEYQNFE
# B3: Acetyltransferase, GNAT family (enzyme, UniProt C4M6X5 1-163)
# chain: MLNIGIHFIDEIRRVNCNVLPVMYSDIFYNKIKKEDSIVIKSLNLIFKDLVIERMLIKEVSENNKIVGGIIGMKEKDKYVLMTLAVYTKFQGKGYGSKLVEFFIQKVKEKGIRKIEVQVHIDNKHAIEFYTKFGFKRIKTIPKAYPRLSHPSGYLYELILNTM
# B4: Ribosomal protein 60S L26 (protein, UniProt C4LSU3 1-213)
# chain: MKFNCKVSSNPSKARKALYTANASQRALMMSARLSKELREKYNVIAIPIHKDDEVKIIKGHQKVAGKVTAVRRSKYVINIDKLTKTKANGQTVPIAIRPSNVIITKLFLNKDREALLAKKAESRKSYKELVAKRNEEVAKAFTAVYPALNMDIFGKKVEPITEKKPIRIPSKKMAEKLMSKPTLRAYKTGIKVHKAKNAIAAYKAALAKKIAK
# B5: AIG1 family protein (protein, UniProt B1N537 1-298)
# chain: MSTEEVKETKLLLIGDIGDGKSSLGNFILKDNKFAVSSGCDAKTQETVGYNGEGNRRNVFVIDTPGLQDSCKMNERWLNAMADCINNKKGVQAIVIVLNYNNGVLSNDLKTMIEIICNIFPFYKFWEHVCVVWTNCYNYTPQKQLDIHKKSKKDYYYPQLKRVIEEFSGNKEEYDIEPPMYYVDSHPDEGCDNSRSEMEIEKLLTWARSFKKPINIKREQKREDSEYKKVVTQEKQRRVEADENNINRMSQVKPMRRDIKIQYNGKVSCSEWEVMESKSEPDIKIKQEKLIQFNCTIL
# B6: Proteosome alpha subunit (protein, UniProt Q94561 1-247)
# chain: MFMTKNENDHGVNTFSSEGRLFQVEYATEAMKLGSTVIGIQTKEGVVLAVEKRISSPLMLGSSIEKIIEIDDHIGAAVSGLTADARTLIDNARLEAQNHRFMYDEPINVEVVAQAISDLSLRFGEGSRKKKVMSRPFGVALLIAGVDETGPRLFQTDPSGMFIEFYAKATGAGTEAAQSILHEKYNKSMTLREAEILALSTLKQVMEEKLNSKNVEVALVTVEKKKFEIMDTAFIENLIGEIKEELI
# B7: EhHSP70 (EHI_127700) (protein, UniProt B1N4X0 1-598)
# chain: MFVSQPARSTCIGIDLGTTNSCMCVFDKTTPRILENAEGKRTTPSCVSFTPTGILVGEAAKRMEALHPTTTVSGVKRMIGCQYKSVEQQRKPYKIVEGKNGEGWIYINGKTYSPSEISSFILKKLKKDAEAKLGKRVDEAVITCPAYFNDAQRQATKDAGTLAGLKVKRIINEPTAAALAYGIDTRKENEGKNIAVYDLGGGTFDISILNINKGIFQVKATNGDTMLGGEDFDKAICQYIEKEFERKYKRNLQRNKKGISRIKEAAEKVKCELSSNEESVISLPYLDRQDSLEITISRRKIELLCKGICKRTEYPCLQCMKDAKLRKKDISDVVLVGGMTRMPLIQNTVQEIFGKKPSKNVNPDEAVAIGAAIQASIIEGKKKDIILVDVTPLTLGIETYGGVMTPLINRNTTIPTSVSKEFTTSMDNQQEVDIKVFQGERRVTRKNKKLGEFKLVGIPPAKKGVAKIEVTFDIDVNGIVKVSALDKGTGKKTGIQVKSNGGLNEEEINRLVKEGEEHAAEDKRKEQLLLHRQRLKEMIESAEDIQKELLKKKIEIRELERVINQSKKVITSEDENEIKRLINQLGEETSNSSAKLYK
# B8: RIO1 family protein (protein, UniProt C4M7J5 1-345)
# chain: MSKEEFRVLTAIEMGMRNHELVPLELIIQISKLNQSLVVRSMKDLHKHKLVWHSTMPYNGYRLTYLGYDYLALRTLTQRGVITGVAQKIGVGKEADIYLATNEKGDDLVLKFHRLGRTSFRAVKKKRDYTKGRVTTNWLYLSRLSAQKEFAFMKALYAKGFPTPIPVDCNRHCVLMSRVKGTLLANVREIEEPIAVFHQGLDLAVKLAECGLIHCDLNEFNLILSDDDKLTMIDFPQMVSVHCSEAEEFFDRDVGCIKTFFWKRFGFGTEEVITLKDIEQTENLDEEVKASGFDFKNEKLLEKARKEFVEDDSVDEEMKDSIDEDVNGNEENSYSDEHEQNEELE
# Target: T1, GST-Adh recombinant protein (E. histolytica)
# Assay: affinity purification with mass spectrometry; GST-tagged bait (or GST control) bound to glutathione-Sepharose (200 μg) incubated with total trophozoite lysate (2 mg), 4 h, 4 °C; SDS-PAGE, silver stain, bands cut, nano UPLC-QToF; hits with reliability above 95%; only the target purified
row,Binder,binding
1,B1,binds

# Target: GST-EhADH recombinant protein (E. histolytica)
# Assay: as above
row,Binder,binding
1,B2,binds

# Target: T2, GST-Linker recombinant protein (E. histolytica)
# Assay: as above
row,Binder,binding
1,B3,binds
2,B2,binds
3,B4,binds
4,B5,binds
5,B6,binds
6,B7,binds
7,B8,binds
